# Assay results published in article PMC3902928, “Nuclear ubiquitination by FBXL5 modulates Snail1 DNA binding and stability” (Nucleic Acids Research, 2013).
# Amino acid sequences for entries named in this document (tags omitted). A change or cut given only in a name is not applied to a line headed by its entry.
# UniProt P97469: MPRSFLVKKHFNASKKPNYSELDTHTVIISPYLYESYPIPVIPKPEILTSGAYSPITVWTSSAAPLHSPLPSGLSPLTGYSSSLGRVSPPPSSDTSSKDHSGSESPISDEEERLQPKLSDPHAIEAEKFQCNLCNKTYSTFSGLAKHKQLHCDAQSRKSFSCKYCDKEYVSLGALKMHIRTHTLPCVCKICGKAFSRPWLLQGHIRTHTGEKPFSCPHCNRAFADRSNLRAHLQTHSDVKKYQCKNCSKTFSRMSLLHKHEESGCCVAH
# UniProt Q02085: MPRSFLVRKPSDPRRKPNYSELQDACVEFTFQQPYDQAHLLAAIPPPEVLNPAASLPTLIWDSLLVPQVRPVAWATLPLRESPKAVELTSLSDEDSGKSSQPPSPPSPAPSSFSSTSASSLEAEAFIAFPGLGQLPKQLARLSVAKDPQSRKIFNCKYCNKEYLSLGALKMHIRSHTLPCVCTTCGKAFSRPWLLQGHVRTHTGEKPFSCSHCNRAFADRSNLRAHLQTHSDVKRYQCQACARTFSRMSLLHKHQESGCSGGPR
# Biological target: T1, GST-FBXL5 (pGEX-6P-1) (UniProt Q9UKA1)
# T1 sequence: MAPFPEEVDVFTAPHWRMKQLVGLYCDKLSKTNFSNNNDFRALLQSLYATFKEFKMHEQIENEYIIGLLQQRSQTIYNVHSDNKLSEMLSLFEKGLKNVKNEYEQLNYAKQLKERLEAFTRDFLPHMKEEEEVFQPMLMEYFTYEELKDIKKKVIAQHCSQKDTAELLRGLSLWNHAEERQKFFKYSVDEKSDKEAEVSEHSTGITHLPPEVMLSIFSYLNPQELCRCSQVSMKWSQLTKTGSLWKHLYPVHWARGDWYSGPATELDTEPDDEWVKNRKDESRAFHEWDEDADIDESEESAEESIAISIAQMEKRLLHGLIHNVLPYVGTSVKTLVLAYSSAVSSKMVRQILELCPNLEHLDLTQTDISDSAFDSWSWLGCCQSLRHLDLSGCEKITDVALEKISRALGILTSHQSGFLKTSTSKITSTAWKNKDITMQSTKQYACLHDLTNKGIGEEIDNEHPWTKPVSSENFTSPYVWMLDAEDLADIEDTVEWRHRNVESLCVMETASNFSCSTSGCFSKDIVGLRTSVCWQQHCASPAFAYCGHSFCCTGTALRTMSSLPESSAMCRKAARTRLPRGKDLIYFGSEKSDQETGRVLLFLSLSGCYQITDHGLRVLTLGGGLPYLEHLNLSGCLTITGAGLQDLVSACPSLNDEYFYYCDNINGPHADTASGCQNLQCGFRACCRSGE
# Assay: pull-down; GST or GST-FBXL5 protein on glutathione-sepharose with extracts from transfected HEK293T cells; western blot; only the target purified
row,binding,Substance
1,binds,Snail2-HA (pcDNA3-Snail2-HA) (from UniProt P97469)
2,binds,GFP-Snail1CT ΔZnF4 (from UniProt Q02085) (domain or fragment)
3,no binding,GFP-Snail1CT ΔZnF2-4 (from UniProt Q02085) (domain or fragment)

# Results are given in words; binding and its absence hold for the method and conditions named. In cells and extracts the contact can be indirect. Binding calls can cover weak binding; strength is not graded here. Where a sequence is shown, tags or fusion partners need not be part of it.
